Results are given in words; binding and its absence hold for the method and conditions named. Binding seen in cells or lysates may run through a third protein. Some results given as binding are weak or reduced against the parent protein; the word gives no strength.
Molecular target: CUL4B (human (endogenous in HEK293)) (UniProt Q13620)
Assay: co-IP; lysate of HEK293 cells transfected with pcDNA3-HBx-HA (1% NP-40, 50 mM Tris-HCl pH 7.4, 50 mM EDTA, 150 mM NaCl); precipitated with anti-CUL4B at 4 °C overnight, protein A/G agarose; immunoblot; IgG as negative control

Amino acid sequences for entries named in this document (tags omitted).
UniProt Q13620: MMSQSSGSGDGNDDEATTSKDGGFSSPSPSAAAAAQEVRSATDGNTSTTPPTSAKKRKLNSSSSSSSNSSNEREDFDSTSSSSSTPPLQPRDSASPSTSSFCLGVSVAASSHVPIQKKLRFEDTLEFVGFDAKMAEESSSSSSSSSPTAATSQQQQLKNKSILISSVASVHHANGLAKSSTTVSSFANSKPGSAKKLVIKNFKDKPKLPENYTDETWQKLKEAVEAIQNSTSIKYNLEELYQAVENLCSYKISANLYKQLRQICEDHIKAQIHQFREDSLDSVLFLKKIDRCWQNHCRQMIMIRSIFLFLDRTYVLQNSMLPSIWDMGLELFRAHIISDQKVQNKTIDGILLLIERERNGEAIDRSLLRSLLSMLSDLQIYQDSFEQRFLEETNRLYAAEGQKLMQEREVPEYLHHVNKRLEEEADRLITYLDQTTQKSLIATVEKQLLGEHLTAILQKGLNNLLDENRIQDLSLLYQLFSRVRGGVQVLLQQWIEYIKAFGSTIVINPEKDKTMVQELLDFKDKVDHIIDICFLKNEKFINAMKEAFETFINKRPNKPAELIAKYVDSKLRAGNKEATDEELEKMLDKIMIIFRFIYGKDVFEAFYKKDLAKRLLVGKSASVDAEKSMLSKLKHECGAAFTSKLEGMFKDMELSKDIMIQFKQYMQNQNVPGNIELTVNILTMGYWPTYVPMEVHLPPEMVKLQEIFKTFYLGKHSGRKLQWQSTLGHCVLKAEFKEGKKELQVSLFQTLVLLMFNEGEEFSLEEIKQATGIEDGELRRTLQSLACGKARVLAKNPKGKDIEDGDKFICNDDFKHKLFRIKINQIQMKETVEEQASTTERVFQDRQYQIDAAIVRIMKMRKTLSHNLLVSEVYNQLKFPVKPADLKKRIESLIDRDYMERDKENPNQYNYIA
UniProt Q16531: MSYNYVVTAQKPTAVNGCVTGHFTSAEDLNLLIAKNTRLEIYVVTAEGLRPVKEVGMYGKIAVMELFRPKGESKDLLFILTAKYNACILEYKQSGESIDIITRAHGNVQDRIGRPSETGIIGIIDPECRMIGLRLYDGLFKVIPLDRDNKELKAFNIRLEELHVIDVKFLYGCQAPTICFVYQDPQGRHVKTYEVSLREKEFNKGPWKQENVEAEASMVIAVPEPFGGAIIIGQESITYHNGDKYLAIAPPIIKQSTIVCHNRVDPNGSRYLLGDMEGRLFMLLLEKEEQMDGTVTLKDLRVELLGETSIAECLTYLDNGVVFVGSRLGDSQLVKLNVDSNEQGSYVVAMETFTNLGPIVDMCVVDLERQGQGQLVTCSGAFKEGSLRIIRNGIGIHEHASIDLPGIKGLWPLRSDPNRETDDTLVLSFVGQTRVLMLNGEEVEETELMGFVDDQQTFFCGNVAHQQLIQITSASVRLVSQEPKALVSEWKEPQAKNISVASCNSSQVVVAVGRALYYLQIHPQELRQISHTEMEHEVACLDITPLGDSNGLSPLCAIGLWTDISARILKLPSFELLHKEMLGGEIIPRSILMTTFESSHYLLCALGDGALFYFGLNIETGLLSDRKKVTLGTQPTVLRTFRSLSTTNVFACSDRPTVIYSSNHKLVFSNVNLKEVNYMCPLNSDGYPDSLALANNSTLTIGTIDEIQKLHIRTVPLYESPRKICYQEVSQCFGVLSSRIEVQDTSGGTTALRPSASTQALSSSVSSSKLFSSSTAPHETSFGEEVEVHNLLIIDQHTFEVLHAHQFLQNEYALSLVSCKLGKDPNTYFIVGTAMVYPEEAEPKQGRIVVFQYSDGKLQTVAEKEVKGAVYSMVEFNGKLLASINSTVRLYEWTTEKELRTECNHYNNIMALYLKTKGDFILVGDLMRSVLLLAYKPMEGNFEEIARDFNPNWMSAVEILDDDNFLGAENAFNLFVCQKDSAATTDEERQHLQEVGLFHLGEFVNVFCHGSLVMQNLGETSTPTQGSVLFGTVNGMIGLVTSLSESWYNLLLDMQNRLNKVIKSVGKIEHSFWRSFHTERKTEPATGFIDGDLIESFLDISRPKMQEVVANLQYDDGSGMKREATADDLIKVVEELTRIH

binding: binds
Substance: UV-damaged DNA binding protein 1 (DDB1) (from UniProt Q16531 1-1140)

Reference: article PMC8763003
